Measured values from the supplement of paper PMC10849652.
The list shows a part of the results.

The chains behind the UniProt entries cited, without tags or fusion partners. Where a name states a change or a piece, a line headed by the entry shows the natural chain unless it says otherwise.
UniProt O76041: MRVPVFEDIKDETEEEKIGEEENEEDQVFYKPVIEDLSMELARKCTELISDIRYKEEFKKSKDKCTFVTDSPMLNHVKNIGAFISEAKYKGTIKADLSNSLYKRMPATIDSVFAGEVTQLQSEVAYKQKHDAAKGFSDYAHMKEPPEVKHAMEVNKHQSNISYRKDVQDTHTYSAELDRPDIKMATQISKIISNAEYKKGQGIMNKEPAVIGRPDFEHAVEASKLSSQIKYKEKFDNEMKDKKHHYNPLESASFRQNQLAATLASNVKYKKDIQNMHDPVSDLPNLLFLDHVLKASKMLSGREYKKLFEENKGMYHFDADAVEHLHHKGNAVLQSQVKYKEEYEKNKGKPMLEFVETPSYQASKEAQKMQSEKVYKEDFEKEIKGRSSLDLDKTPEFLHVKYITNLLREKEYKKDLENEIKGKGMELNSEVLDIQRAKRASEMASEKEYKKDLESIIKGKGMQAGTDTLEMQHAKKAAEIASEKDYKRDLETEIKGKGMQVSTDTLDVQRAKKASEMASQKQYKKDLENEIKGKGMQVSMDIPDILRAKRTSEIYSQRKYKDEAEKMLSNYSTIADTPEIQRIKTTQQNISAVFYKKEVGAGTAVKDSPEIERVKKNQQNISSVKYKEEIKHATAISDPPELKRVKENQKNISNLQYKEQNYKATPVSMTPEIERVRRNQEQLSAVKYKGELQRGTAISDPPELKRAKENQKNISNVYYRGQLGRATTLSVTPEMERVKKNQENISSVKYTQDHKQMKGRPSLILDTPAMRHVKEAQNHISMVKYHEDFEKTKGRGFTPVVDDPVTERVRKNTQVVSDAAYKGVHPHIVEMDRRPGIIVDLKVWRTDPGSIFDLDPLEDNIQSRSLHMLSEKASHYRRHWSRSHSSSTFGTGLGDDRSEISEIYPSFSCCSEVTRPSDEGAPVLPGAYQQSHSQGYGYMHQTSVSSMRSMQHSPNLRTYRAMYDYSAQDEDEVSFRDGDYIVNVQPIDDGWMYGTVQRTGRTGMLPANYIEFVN
UniProt Q9NPE2: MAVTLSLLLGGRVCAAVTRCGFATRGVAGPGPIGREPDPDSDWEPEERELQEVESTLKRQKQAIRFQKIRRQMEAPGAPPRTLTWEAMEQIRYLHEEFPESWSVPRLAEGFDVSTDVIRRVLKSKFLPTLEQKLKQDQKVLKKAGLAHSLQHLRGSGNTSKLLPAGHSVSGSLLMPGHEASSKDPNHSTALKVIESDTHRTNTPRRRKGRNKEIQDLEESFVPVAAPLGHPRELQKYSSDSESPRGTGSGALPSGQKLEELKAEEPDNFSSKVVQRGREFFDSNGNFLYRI
UniProt O95299, whole entry, looked up: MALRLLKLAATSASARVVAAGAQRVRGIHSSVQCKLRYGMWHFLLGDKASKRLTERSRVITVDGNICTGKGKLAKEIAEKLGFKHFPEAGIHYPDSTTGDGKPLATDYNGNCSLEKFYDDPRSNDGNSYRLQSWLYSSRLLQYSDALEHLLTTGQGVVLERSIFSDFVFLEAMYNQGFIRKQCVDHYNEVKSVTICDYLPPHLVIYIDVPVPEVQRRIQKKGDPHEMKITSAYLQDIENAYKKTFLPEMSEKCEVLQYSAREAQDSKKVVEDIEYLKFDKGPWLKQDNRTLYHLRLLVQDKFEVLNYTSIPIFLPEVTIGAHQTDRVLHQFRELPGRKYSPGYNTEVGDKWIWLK
UniProt Q9Y221: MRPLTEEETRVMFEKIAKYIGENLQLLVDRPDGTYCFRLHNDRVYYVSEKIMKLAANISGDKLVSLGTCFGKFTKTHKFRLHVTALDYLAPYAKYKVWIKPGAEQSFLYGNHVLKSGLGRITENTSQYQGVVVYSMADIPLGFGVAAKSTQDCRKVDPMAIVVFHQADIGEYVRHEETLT
UniProt O95182, whole entry, looked up: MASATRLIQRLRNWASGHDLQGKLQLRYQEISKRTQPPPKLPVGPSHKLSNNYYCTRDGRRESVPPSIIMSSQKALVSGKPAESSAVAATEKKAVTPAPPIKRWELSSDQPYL
UniProt Q9H9Q4: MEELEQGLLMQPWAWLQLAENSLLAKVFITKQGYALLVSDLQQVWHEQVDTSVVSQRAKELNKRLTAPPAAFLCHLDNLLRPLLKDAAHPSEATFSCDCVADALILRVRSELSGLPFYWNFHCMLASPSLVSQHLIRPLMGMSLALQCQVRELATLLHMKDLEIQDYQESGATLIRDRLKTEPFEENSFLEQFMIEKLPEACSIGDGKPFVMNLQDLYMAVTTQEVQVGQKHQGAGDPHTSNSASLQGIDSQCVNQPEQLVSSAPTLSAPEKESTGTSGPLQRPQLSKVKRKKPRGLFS
UniProt Q9BYG3: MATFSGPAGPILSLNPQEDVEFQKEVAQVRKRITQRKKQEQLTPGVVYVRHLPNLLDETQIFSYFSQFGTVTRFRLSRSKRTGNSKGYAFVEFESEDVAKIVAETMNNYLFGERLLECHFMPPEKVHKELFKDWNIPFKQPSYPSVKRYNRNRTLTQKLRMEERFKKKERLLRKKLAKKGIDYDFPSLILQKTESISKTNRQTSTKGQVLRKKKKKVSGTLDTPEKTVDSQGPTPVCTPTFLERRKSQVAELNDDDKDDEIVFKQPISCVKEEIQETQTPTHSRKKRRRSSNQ
UniProt O43676, whole entry, looked up: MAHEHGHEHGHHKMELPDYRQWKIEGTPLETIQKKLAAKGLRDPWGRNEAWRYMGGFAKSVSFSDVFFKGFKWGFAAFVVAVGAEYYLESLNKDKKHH
UniProt O75380, whole entry, looked up: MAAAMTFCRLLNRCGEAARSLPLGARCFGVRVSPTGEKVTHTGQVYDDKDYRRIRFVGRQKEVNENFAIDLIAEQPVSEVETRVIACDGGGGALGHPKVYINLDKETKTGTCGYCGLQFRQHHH
UniProt P12036: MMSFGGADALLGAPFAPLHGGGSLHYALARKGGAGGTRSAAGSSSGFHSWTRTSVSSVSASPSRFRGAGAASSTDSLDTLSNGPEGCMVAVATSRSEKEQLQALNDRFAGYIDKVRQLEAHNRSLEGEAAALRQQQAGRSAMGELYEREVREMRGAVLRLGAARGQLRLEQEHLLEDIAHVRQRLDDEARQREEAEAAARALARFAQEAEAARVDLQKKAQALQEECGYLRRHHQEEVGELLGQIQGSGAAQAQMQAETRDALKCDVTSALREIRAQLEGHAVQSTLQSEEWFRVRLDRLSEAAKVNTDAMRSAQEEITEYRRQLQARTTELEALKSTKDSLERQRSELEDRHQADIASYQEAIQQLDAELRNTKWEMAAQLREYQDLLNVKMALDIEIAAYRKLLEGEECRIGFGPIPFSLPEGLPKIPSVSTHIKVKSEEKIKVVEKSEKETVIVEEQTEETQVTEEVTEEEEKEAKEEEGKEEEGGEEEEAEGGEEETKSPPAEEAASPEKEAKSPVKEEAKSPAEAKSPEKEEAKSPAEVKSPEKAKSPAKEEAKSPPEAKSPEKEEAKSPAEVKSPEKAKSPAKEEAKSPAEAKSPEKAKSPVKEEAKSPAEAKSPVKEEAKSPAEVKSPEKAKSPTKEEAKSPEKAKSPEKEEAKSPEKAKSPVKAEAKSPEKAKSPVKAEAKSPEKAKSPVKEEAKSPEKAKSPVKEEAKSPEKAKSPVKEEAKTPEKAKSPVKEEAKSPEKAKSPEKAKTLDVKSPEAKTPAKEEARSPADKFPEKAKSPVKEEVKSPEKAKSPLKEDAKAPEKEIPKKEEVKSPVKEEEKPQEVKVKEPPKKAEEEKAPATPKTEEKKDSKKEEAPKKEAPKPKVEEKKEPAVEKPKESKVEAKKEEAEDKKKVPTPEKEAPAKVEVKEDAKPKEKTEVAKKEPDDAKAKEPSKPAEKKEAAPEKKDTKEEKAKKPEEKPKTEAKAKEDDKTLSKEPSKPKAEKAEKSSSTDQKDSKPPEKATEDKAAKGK
UniProt Q00653: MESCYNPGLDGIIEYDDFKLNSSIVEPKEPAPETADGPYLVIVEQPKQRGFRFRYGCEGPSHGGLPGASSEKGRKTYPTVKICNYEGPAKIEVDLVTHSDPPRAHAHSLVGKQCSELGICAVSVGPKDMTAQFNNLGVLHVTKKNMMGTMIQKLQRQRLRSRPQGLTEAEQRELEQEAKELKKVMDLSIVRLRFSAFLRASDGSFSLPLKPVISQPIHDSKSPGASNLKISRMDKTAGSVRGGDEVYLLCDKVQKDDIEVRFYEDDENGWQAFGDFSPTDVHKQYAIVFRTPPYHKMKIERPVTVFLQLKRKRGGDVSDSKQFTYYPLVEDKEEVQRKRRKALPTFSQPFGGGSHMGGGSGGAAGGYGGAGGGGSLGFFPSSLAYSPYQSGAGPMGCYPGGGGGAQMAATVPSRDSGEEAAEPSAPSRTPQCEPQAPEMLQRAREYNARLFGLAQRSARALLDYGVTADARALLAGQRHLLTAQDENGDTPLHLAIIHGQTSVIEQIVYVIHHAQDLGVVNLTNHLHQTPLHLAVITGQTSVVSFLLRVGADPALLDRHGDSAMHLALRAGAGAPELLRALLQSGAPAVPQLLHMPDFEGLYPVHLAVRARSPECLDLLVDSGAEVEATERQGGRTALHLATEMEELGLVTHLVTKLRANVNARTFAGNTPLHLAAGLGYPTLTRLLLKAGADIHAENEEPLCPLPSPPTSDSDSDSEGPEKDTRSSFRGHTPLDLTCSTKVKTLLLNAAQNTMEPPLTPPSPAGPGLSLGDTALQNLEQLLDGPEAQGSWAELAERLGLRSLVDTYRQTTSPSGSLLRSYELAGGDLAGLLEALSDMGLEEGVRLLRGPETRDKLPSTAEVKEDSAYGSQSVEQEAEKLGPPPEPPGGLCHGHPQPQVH
UniProt P19404, whole entry, looked up: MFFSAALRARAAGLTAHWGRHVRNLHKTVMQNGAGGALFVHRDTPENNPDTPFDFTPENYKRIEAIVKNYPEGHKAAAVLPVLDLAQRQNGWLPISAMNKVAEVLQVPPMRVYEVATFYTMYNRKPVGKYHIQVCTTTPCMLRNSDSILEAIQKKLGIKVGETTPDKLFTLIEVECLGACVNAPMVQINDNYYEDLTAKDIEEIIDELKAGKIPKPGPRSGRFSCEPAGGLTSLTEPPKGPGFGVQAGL
UniProt P28331, whole entry, looked up: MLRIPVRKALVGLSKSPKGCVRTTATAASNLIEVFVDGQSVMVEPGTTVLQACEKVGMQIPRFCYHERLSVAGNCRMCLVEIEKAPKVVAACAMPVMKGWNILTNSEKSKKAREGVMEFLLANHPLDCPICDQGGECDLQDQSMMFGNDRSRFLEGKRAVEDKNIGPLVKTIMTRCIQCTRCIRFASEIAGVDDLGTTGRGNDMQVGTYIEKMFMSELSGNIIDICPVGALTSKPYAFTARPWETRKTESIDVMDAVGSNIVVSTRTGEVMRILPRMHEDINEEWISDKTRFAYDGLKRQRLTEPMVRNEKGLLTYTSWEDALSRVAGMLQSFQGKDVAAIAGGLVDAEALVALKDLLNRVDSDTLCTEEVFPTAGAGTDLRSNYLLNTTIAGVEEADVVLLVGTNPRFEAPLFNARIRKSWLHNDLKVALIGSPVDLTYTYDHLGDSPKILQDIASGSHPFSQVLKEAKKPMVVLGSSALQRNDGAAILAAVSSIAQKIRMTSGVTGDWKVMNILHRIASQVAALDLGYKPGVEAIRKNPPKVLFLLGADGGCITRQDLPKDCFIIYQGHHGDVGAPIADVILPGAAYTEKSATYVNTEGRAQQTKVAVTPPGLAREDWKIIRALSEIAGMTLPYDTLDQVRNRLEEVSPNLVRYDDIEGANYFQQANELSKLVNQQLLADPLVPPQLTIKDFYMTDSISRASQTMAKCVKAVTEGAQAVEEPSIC
UniProt Q9Y375: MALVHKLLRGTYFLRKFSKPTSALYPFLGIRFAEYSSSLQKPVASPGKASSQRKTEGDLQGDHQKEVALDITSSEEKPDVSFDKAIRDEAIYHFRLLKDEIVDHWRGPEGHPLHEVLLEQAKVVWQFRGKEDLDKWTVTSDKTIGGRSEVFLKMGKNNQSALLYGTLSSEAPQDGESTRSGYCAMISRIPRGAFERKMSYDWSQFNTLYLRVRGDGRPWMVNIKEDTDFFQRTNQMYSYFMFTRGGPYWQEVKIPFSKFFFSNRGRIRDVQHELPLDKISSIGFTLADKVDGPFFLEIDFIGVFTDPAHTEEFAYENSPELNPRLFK

Key:
Experiment in all cases: log2 fold change, soluble protein after heating vs DMSO (PISA); higher = thermal stabilisation; K562 lysate, 10 uM; active = over 0.2 and 3.5 SD of the protein, either way, in both replicates (recomputed)
ibrutinib = compound: C=CC(=O)N1CCC[C@@H](n2nc(-c3ccc(Oc4ccccc4)cc3)c3c(N)ncnc32)C1 [ibrutinib]
In short: (§1)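 Soluble protein was defined as the supernatant remaining after 21,000xg for 90 min, following pooling of heated aliquots and adjustment to 0.5% NP-40 at 4°C. Before that, crude K562 extract at 1 mg/mL protein in PBS pH 7.4 with 1 mM MgCl2 was treated with 10 μM compound for 30 min and heated for 3 min across 48°C-58°C. Quantification used TMTpro 16plex LC-MS/MS with channel sums equalised, and values are log-two fold changes in thermal stability relative to solvent controls from duplicates.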

[1] = compound: CC(=O)c1cnc2ccc(-c3cc(Cl)c(O)c(Cl)c3)nc2c1N[C@H]1CC[C@H](CN(C)C)CC1
In short: as §1

ralimetinib = compound: CC(C)(C)Cn1c(N)nc2ccc(-c3[nH]c(C(C)(C)C)nc3-c3ccc(F)cc3)nc21 [ralimetinib]
In short: as §1

[2] = compound: CC(C)(O)CC(=O)NCCn1ccc2ncnc(Nc3ccc(Oc4cccc(C(F)(F)F)c4)c(Cl)c3)c21
In short: as §1

[3] = compound: CC(C)C1=C2N=C(C=C(N2N=C1)NCC3=CC=CC=C3)NCCCCCCN
In short: as §1

[4] = compound: CC1=C(C(CC(=O)N1)C2=CC=C(C=C2)C(F)(F)F)C(=O)NC3=C(C=C4C(=C3)C=NN4)F
In short: as §1

[5] = compound: CC1=C(C2=C(C=C1)C(=O)C3=CC=CC=C3N2CCCN)C
In short: as §1

[6] = compound: CC1=C(C=C(C=C1)NC(=O)C2=CC(=CC=C2)C(C)(C)C#N)NC3=CC4=C(C=C3)N=CN(C4=O)C
In short: as §1

[7] = compound: CC1=C(C=C(C=C1)NC(=O)C2=CC(=CC=C2)N(C)C)NC(=O)C3=CC=C(C=C3)O
In short: as §1

[8] = compound: CC1=CC=C(C=C1)SC2=C3C=C(SC3=CN=C2)C(=O)N
In short: as §1

vemurafenib = compound: CCCS(=O)(=O)Nc1ccc(F)c(C(=O)c2c[nH]c3ncc(-c4ccc(Cl)cc4)cc23)c1F [vemurafenib]
In short: as §1

[9] = compound: CCCS(=O)(=O)Nc1ccc(F)c(C(=O)c2c[nH]c3ncc(Cl)cc23)c1F
In short: as §1

barasertib = compound: CCN(CCCOc1ccc2c(Nc3cc(CC(=O)Nc4cccc(F)c4)[nH]n3)ncnc2c1)CCOP(=O)(O)O [barasertib]
In short: as §1

[10] = compound: CC[C@@H]1C(=O)N(C)c2cnc(Nc3ccc(C(=O)NC4CCN(C)CC4)cc3OC)nc2N1C1CCCC1
In short: as §1

volasertib = compound: CC[C@@H]1C(=O)N(C)c2cnc(Nc3ccc(C(=O)N[C@H]4CC[C@H](N5CCN(CC6CC6)CC5)CC4)cc3OC)nc2N1C(C)C [volasertib]
In short: as §1

[11] = compound: CCn1c(C(=O)N(C2CC2)C2CC2)cc2c3c(ncn3C)c(Nc3cc(C)n(C)n3)nc21
In short: as §1

[12] = compound: CCn1cc(-c2ccnc3[nH]c(-c4cccc(CN(C)C)c4)cc23)c(-c2ccc(NC(=O)N(C)C)cc2)n1
In short: as §1

[13] = compound: CN1CCC(CNc2ccc3ncc(-c4cccc(OC(F)(F)F)c4)n3n2)CC1
In short: as §1

saracatinib = compound: CN1CCN(CCOc2cc(OC3CCOCC3)c3c(Nc4c(Cl)ccc5c4OCO5)ncnc3c2)CC1 [saracatinib]
In short: as §1

sotrastaurin = compound: CN1CCN(c2nc(C3=C(c4c[nH]c5ccccc45)C(=O)NC3=O)c3ccccc3n2)CC1 [sotrastaurin]
In short: as §1

Measured: log2 fold change

NEBL isoform 2 (UniProt O76041)
inactive: ibrutinib -0.04 | [1] 0.015 | ralimetinib -0.038 | [2] 0.027 | [3] 0.027 | [4] -0.012 | [5] -0.028 | [6] 0 | [7] 0.011 | [8] -0.013 | vemurafenib 0.014 | [9] 0.009 | barasertib -0.078 | [10] 0.02 | volasertib 0.051 | [11] -0.041 | [12] -0.108 | [13] 0.084 | saracatinib 0.023 | sotrastaurin -0.039

NGRN (UniProt Q9NPE2)
inactive: ibrutinib 0.001 | [1] 0.013 | ralimetinib 0.022 | [2] 0.002 | [3] 0.059 | [4] 0.046 | [5] 0.022 | [6] -0.007 | [7] -0.001 | [8] -0.069 | vemurafenib -0.076 | [9] 0.029 | barasertib 0.021 | [10] -0.013 | volasertib 0.065 | [11] -0.018 | [12] 0.043 | [13] 0.03 | saracatinib 0.079 | sotrastaurin 0.034

NEU1 (UniProt Q99519)
inactive: ibrutinib -0.022 | [1] -0.038 | ralimetinib 0.01 | [2] -0.001 | [3] -0.033 | [4] -0.096 | [5] 0.008 | [6] -0.024 | [7] 0.063 | [8] 0.141 | vemurafenib 0.151 | [9] 0.026 | barasertib 0.053 | [10] -0.003 | volasertib -0.009 | [11] -0.054 | [12] -0.05 | [13] 0.068 | saracatinib 0.007 | sotrastaurin -0.01

NDUFA10 (UniProt O95299)
inactive: ibrutinib -0.059 | [1] 0.083 | ralimetinib 0.008 | [2] 0 | [3] -0.051 | [4] 0.08 | [5] 0.064 | [6] -0.052 | [7] 0.058 | [8] -0.054 | vemurafenib -0.012 | [9] 0.008 | barasertib 0.309 | [10] -0.07 | volasertib -0.093 | [11] 0.021 | [12] -0.061 | [13] -0.138 | saracatinib 0.032 | sotrastaurin 0.16

NIP7 (UniProt Q9Y221)
inactive: ibrutinib 0.039 | [1] 0.017 | ralimetinib 0.016 | [2] 0.032 | [3] 0.009 | [4] 0.009 | [5] -0.026 | [6] 0.002 | [7] -0.001 | [8] 0.031 | vemurafenib -0.053 | [9] 0.045 | barasertib -0.061 | [10] 0.014 | volasertib -0.063 | [11] 0.06 | [12] -0.1 | [13] 0.044 | saracatinib 0.021 | sotrastaurin 0.012

NDUFA7 (UniProt O95182)
inactive: ibrutinib -0.006 | [1] 0.015 | ralimetinib -0.005 | [2] -0.05 | [3] -0.025 | [4] -0.02 | [5] -0.01 | [6] -0.016 | [7] 0.024 | [8] 0.001 | vemurafenib -0.015 | [9] 0.033 | barasertib -0.047 | [10] 0.065 | volasertib 0.011 | [11] -0.019 | [12] -0.001 | [13] -0.082 | saracatinib -0.02 | sotrastaurin 0.028

NIPBL (UniProt Q6KC79)
inactive: ibrutinib 0.026 | [1] 0.008 | ralimetinib 0.035 | [2] -0.016 | [3] 0.036 | [4] 0.007 | [5] -0.025 | [6] -0.03 | [7] -0.044 | [8] 0.021 | vemurafenib -0.015 | [9] 0.091 | barasertib 0.017 | [10] -0.081 | volasertib -0.048 | [11] 0.04 | [12] -0.004 | [13] -0.042 | saracatinib -0.001 | sotrastaurin 0.004

NHEJ1 (UniProt Q9H9Q4)
inactive: ibrutinib 0.053 | [1] 0.041 | ralimetinib 0.029 | [2] -0.061 | [3] -0.037 | [4] -0.035 | [5] -0.015 | [6] 0.026 | [7] 0.006 | [8] -0.038 | vemurafenib 0.176 | [9] 0.02 | barasertib 0.007 | [10] 0.001 | volasertib 0.008 | [11] -0.064 | [12] -0.08 | [13] 0.016 | saracatinib 0.025 | sotrastaurin 0.013

NIFK (UniProt Q9BYG3)
inactive: ibrutinib 0.02 | [1] -0.039 | ralimetinib 0.022 | [2] 0.002 | [3] -0.001 | [4] 0.016 | [5] -0.035 | [6] -0.005 | [7] 0.016 | [8] 0.032 | vemurafenib 0.015 | [9] 0.036 | barasertib 0.033 | [10] 0.006 | volasertib -0.027 | [11] 0.009 | [12] 0.093 | [13] -0.045 | saracatinib 0.005 | sotrastaurin -0.018

NDUFB3 (UniProt O43676)
inactive: ibrutinib 0.029 | [1] 0.028 | ralimetinib 0.033 | [2] 0.001 | [3] -0.026 | [4] 0.001 | [5] 0.018 | [6] -0.013 | [7] -0.02 | [8] 0.012 | vemurafenib 0.001 | [9] -0.008 | barasertib -0.015 | [10] -0.026 | volasertib 0.026 | [11] 0.072 | [12] -0.014 | [13] 0.012 | saracatinib 0.002 | sotrastaurin 0.004

NDUFS6 (UniProt O75380)
inactive: ibrutinib 0.075 | [1] -0.004 | ralimetinib 0.022 | [2] -0.004 | [3] -0.035 | [4] 0.052 | [5] 0.018 | [6] -0.014 | [7] -0.065 | [8] -0.043 | vemurafenib -0.035 | [9] 0.006 | barasertib 0.043 | [10] -0.037 | volasertib 0.014 | [11] 0.02 | [12] 0.008 | [13] 0.002 | saracatinib 0.003 | sotrastaurin -0.007

NEFH (UniProt P12036)
inactive: ibrutinib 0.019 | [1] -0.021 | ralimetinib 0.016 | [2] -0.09 | [3] -0.012 | [4] 0.007 | [5] 0.066 | [6] 0.014 | [7] 0.043 | [8] -0.007 | vemurafenib 0.021 | [9] -0.004 | barasertib -0.057 | [10] 0.051 | volasertib 0.053 | [11] -0.018 | [12] -0.018 | [13] -0.025 | saracatinib 0.039 | sotrastaurin -0.022

NFKB2 (UniProt Q00653)
inactive: ibrutinib 0.01 | [1] 0.014 | ralimetinib 0.017 | [2] -0.011 | [3] -0.01 | [4] -0.018 | [5] -0.007 | [6] -0.011 | [7] 0.039 | [8] -0.022 | vemurafenib 0.008 | [9] -0.003 | barasertib -0.005 | [10] -0.01 | volasertib -0.029 | [11] 0.054 | [12] -0.033 | [13] -0.008 | saracatinib 0.056 | sotrastaurin -0.027

NDUFV2 (UniProt P19404)
inactive: ibrutinib 0.054 | [1] -0.007 | ralimetinib -0.056 | [2] -0.04 | [3] -0.013 | [4] -0.019 | [5] -0.017 | [6] 0.009 | [7] -0.008 | [8] -0.012 | vemurafenib -0.015 | [9] -0.001 | barasertib 0.105 | [10] 0.06 | volasertib 0.017 | [11] -0.031 | [12] -0.042 | [13] -0.031 | saracatinib -0.011 | sotrastaurin 0.01

NDUFS1 isoform 2 (UniProt P28331)
inactive: ibrutinib -0.022 | [1] -0.009 | ralimetinib 0.014 | [2] -0.049 | [3] -0.041 | [4] 0.01 | [5] 0.007 | [6] -0.045 | [7] 0.005 | [8] 0.005 | vemurafenib 0.041 | [9] 0.018 | barasertib 0.011 | [10] -0.032 | volasertib -0.001 | [11] 0.016 | [12] -0.006 | [13] -0.027 | saracatinib -0.004 | sotrastaurin 0.054

NDUFAF1 (UniProt Q9Y375)
inactive: ibrutinib -0.022 | [1] 0.002 | ralimetinib -0.008 | [2] -0.034 | [3] -0.036 | [4] 0.046 | [5] 0.018 | [6] 0.091 | [7] 0.023 | [8] -0.027 | vemurafenib -0.004 | [9] 0.041 | barasertib -0.003 | [10] 0.072 | volasertib 0.009 | [11] -0.007 | [12] -0.083 | [13] 0.014 | saracatinib -0.008 | sotrastaurin 0.039
